This is one part of the list.
The sequences below were run against OsWRKY34 (Oryza sativa, UniProt Q0JBA9 1-250) (assay: protein-binding microarray (RPBM); PBS, 2% BSA, 51.3 ng/ul salmon testes DNA, 50 uM zinc acetate, 200 nM TF, 25 C, 1 h; high values mean tight binding). Conditions: protein: recombinant; tags: N-terminal polyhistidine and DsRed monomer fusion (pET32a); label: CyDye5-dUTP incorporated in the synthesized complementary strand; 3' TTTTT single-stranded linker to array surface; dsDNA, one strand shown.
Method in brief: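 Polyhistidine-tagged DsRed fusions of transcription factors, joined at the N-terminus, were expressed in E. coli BL21-CodonPlus and isolated on Ni–NTA. They were incubated at 200 nM for 1 h at 25 °C on a custom Agilent array, double-stranded and BSA-blocked, in PBS with 2% BSA, salmon testes DNA and 50 µM zinc acetate. The binding signal is per-feature fluorescence intensity (arbitrary units) read on an Axon 4000B scanner after washing.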

Sequences of proteins named here, by UniProt entry; tags and fusion partners are left off.
UniProt Q0JBA9, entry or part of it: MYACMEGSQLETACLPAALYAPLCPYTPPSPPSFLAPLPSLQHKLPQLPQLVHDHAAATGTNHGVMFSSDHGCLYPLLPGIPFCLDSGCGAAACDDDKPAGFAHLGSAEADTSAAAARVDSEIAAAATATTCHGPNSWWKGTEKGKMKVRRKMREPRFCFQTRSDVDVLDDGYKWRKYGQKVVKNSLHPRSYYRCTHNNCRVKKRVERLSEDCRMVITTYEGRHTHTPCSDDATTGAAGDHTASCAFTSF

Sequence	binding signal
GCTAAACGACTCTGCACCCATCTCGTCTCTATCTCCTCACCGGAGTCACCTAGTGCAG	13100 fluorescence intensity (a.u.)
AGGGAGCGGGTGTGGGTTGCCGGGCTAAAAAGCCGCCGGCCGGAGTCACCTAGTGCAG	8550 fluorescence intensity (a.u.)
AATGATTGTTGGATAATTCCATTGCTGCCGTATTTTTTTACGGAGTCACCTAGTGCAG	10800 fluorescence intensity (a.u.)
GAGAAGGAACCGCGACGTTTGCATAATTCCGTCACTAACACGGAGTCACCTAGTGCAG	8620 fluorescence intensity (a.u.)
AGGGTGAACAGAAGAAGATGAATCTAACGGGTGGGTCTCACGGAGTCACCTAGTGCAG	10800 fluorescence intensity (a.u.)
TGTATTGATATGTGTGGGATGGGTGAAAAATAAATTTGTTCGGAGTCACCTAGTGCAG	10100 fluorescence intensity (a.u.)
ATTTCACCAAGCCCAGTCCTCGAGCCCGCGTAACTGCAAACGGAGTCACCTAGTGCAG	9000 fluorescence intensity (a.u.)
GCCCAAACCCATCCTCCGCCGCCAACGCGCCGAGAGCAAACGGAGTCACCTAGTGCAG	9290 fluorescence intensity (a.u.)
CCATGGAGCAGGTCTCGTGCTTCGCCGCCGCCGCCGCCGCCGGAGTCACCTAGTGCAG	8080 fluorescence intensity (a.u.)
ACCAACTCCACACACTCCAAAATAAGCTTTCACTTTCATCCGGAGTCACCTAGTGCAG	9060 fluorescence intensity (a.u.)
CACTTCCTGGTCCCACCACCCCTCCGCCACCTTTGCATTCCGGAGTCACCTAGTGCAG	8730 fluorescence intensity (a.u.)
ATTACTGGAACTCTGTTGTATGTATTTCTGCATCACTTTCCGGAGTCACCTAGTGCAG	8490 fluorescence intensity (a.u.)
TGCCATATACTATAAATTTACTCGATCCGTCTCAAAATATCGGAGTCACCTAGTGCAG	10700 fluorescence intensity (a.u.)
ATAATCATTCATTTCACCTTGTCTTCTCAATATATTTTGCCGGAGTCACCTAGTGCAG	9580 fluorescence intensity (a.u.)
GATGAAATTGGTTTATAGCCTCTCGCTTAATGTTTTCTTTCGGAGTCACCTAGTGCAG	8160 fluorescence intensity (a.u.)
CTCACACTAACCCACCCACCCCAGCCCTAGCTTTTTTTTTCGGAGTCACCTAGTGCAG	11700 fluorescence intensity (a.u.)
AGAAGGGTGAAATTTTGAGAGGTTTGTTTGCTTTGAGATTCGGAGTCACCTAGTGCAG	8220 fluorescence intensity (a.u.)
GGGGCAATAAGACGCTGTTCTCGTTTCAGTTTTCTTGCTCCGGAGTCACCTAGTGCAG	9580 fluorescence intensity (a.u.)
TATAGGTTTGGTGAGCCCATGCATGCATATTTTTAGTCTCCGGAGTCACCTAGTGCAG	9040 fluorescence intensity (a.u.)
TTTTATTTTTAATCGGATACTCCTTTTTTTTTACCTTTTGCGGAGTCACCTAGTGCAG	8830 fluorescence intensity (a.u.)
TAGCTTCCTTTCGTCCTCATACGCCGCCGGTTCTGTTTCGCGGAGTCACCTAGTGCAG	8700 fluorescence intensity (a.u.)

Sequence	binding signal
ATTTTGCTACCATTGGTGTTGTATTTGATTTATTTAGTGTCGGAGTCACCTAGTGCAG	9800 fluorescence intensity (a.u.)
GTAAGTGTGTGTTCAGTGATGGCTATCGGTGGGTGGGTGGCGGAGTCACCTAGTGCAG	16600 fluorescence intensity (a.u.)
TGCAACCTGGTGTGTTCGGTAACGAGGGATGGGTAGTAAGCGGAGTCACCTAGTGCAG	8120 fluorescence intensity (a.u.)
CATTGTTCATCCACTGTGGCTCATTTTCCTATGTTCCATCCGGAGTCACCTAGTGCAG	13300 fluorescence intensity (a.u.)
TGTTTCATAAAAGTTTTAAATGTTTCAGCTGCTGTTTTTTCGGAGTCACCTAGTGCAG	8790 fluorescence intensity (a.u.)
CCCACGCATCGCCATGGACCATCTTCTCCGGCTCAGATCCCGGAGTCACCTAGTGCAG	8150 fluorescence intensity (a.u.)
AATTGCATGTTCTTGATTGGTCTGTGGTTGTGATCCGTCCCGGAGTCACCTAGTGCAG	8780 fluorescence intensity (a.u.)
GATCATTTGTCTTTCCCCTTAACTTCATATTGGGAAGTTGCGGAGTCACCTAGTGCAG	8130 fluorescence intensity (a.u.)
GATAGCAAAATGGCCATGTCAATCTGATTGTTCATGACAACGGAGTCACCTAGTGCAG	8190 fluorescence intensity (a.u.)
CATCCACTGATCCGGCCGGCGATATCACCTCCATCCATCCCGGAGTCACCTAGTGCAG	9820 fluorescence intensity (a.u.)
TGTGCGTCGTGTGCGTTCTGTTAGTTTGATTGAGTCGTGACGGAGTCACCTAGTGCAG	10800 fluorescence intensity (a.u.)
AGAGAACCCCGTCTTCTCGCTGTCCTCGCATCCACTCCTGCGGAGTCACCTAGTGCAG	8900 fluorescence intensity (a.u.)
AACACGGCCGCCCTCGCCACGTCTTCCACCTCCAGCGATGCGGAGTCACCTAGTGCAG	8540 fluorescence intensity (a.u.)
GCCAGTATCTCCTCTTCCTTCTCGACAGTTGTGTCCTCTCCGGAGTCACCTAGTGCAG	8580 fluorescence intensity (a.u.)
GCTGAACCCAACCCACCACGTTGGCCGCCCACGCCGCGACCGGAGTCACCTAGTGCAG	10300 fluorescence intensity (a.u.)
CTCCATAGGGCTTGGGGACATCTAACTCCTTACCACTTTTCGGAGTCACCTAGTGCAG	11000 fluorescence intensity (a.u.)
TTATGATTTTTGACATATTTGTCTCTCTTTTTTGTTATTTCGGAGTCACCTAGTGCAG	8300 fluorescence intensity (a.u.)
CCCATGTCGTTGTCCCGCTCCTGCAAGAGATACACCTATGCGGAGTCACCTAGTGCAG	8490 fluorescence intensity (a.u.)
GGTGGCACAGTTGCGGCGCTGCTCTCTTTCCGCTTCTACCCGGAGTCACCTAGTGCAG	8690 fluorescence intensity (a.u.)
CTAAATCTCTCGTCGGCCCATCACACTAAGCAAAGAAGCCCGGAGTCACCTAGTGCAG	8080 fluorescence intensity (a.u.)
AATTCACTTTATATTTCAACACACTCCTTCACGCCTCCTTCGGAGTCACCTAGTGCAG	8060 fluorescence intensity (a.u.)

A second format for part of the listing above.
Sequence,binding signal
CACTTCCTGGTCCCACCACCCCTCCGCCACCTTTGCATTCCGGAGTCACCTAGTGCAG,8730 fluorescence intensity (a.u.)
TTATGATTTTTGACATATTTGTCTCTCTTTTTTGTTATTTCGGAGTCACCTAGTGCAG,8300 fluorescence intensity (a.u.)
GGTGGCACAGTTGCGGCGCTGCTCTCTTTCCGCTTCTACCCGGAGTCACCTAGTGCAG,8690 fluorescence intensity (a.u.)
